Some results were stated once for a whole list of compounds, not compound by compound.
Assay: Plasma kinetics over 6 months after single subcutaneous dose of rilpivirine nanosuspension alone, or sequential or admixed with rHuPH20 (Example 2)
Assay type: in vivo, minipigs
Conditions: minipig, single SC dose

Q: With Cc1cc(/C=C/C#N)cc(C)c1Nc1ccnc(Nc2ccc(C#N)cc2)n1 [Rilpivirine, 4-[[4-[[4-[(1E)-2-cyanoethenyl]-2,6-dimethylphenyl]amino]-2-pyrimidinyl]amino]benzonitrile] as the compound, how does the “period with measurable blood plasma levels of rilpivirine” value read?
A: at least 6 months

Source: patent US20230405094A1, “TREATMENT OR PREVENTION OF A DISEASE OR DISORDER” (Janssen Sciences Ireland Unlimited Company, priority 2020, published 2023)
